Binding data for 4 molecules are collected here from publication PMC9932102, “SVEP1 is an endogenous ligand for the orphan receptor PEAR1” (Nature Communications, 2023).

Sequences of proteins named here, by UniProt entry; tags and fusion partners are left off. Residues count along the entry.
UniProt A2AVA0, residues 18-3567: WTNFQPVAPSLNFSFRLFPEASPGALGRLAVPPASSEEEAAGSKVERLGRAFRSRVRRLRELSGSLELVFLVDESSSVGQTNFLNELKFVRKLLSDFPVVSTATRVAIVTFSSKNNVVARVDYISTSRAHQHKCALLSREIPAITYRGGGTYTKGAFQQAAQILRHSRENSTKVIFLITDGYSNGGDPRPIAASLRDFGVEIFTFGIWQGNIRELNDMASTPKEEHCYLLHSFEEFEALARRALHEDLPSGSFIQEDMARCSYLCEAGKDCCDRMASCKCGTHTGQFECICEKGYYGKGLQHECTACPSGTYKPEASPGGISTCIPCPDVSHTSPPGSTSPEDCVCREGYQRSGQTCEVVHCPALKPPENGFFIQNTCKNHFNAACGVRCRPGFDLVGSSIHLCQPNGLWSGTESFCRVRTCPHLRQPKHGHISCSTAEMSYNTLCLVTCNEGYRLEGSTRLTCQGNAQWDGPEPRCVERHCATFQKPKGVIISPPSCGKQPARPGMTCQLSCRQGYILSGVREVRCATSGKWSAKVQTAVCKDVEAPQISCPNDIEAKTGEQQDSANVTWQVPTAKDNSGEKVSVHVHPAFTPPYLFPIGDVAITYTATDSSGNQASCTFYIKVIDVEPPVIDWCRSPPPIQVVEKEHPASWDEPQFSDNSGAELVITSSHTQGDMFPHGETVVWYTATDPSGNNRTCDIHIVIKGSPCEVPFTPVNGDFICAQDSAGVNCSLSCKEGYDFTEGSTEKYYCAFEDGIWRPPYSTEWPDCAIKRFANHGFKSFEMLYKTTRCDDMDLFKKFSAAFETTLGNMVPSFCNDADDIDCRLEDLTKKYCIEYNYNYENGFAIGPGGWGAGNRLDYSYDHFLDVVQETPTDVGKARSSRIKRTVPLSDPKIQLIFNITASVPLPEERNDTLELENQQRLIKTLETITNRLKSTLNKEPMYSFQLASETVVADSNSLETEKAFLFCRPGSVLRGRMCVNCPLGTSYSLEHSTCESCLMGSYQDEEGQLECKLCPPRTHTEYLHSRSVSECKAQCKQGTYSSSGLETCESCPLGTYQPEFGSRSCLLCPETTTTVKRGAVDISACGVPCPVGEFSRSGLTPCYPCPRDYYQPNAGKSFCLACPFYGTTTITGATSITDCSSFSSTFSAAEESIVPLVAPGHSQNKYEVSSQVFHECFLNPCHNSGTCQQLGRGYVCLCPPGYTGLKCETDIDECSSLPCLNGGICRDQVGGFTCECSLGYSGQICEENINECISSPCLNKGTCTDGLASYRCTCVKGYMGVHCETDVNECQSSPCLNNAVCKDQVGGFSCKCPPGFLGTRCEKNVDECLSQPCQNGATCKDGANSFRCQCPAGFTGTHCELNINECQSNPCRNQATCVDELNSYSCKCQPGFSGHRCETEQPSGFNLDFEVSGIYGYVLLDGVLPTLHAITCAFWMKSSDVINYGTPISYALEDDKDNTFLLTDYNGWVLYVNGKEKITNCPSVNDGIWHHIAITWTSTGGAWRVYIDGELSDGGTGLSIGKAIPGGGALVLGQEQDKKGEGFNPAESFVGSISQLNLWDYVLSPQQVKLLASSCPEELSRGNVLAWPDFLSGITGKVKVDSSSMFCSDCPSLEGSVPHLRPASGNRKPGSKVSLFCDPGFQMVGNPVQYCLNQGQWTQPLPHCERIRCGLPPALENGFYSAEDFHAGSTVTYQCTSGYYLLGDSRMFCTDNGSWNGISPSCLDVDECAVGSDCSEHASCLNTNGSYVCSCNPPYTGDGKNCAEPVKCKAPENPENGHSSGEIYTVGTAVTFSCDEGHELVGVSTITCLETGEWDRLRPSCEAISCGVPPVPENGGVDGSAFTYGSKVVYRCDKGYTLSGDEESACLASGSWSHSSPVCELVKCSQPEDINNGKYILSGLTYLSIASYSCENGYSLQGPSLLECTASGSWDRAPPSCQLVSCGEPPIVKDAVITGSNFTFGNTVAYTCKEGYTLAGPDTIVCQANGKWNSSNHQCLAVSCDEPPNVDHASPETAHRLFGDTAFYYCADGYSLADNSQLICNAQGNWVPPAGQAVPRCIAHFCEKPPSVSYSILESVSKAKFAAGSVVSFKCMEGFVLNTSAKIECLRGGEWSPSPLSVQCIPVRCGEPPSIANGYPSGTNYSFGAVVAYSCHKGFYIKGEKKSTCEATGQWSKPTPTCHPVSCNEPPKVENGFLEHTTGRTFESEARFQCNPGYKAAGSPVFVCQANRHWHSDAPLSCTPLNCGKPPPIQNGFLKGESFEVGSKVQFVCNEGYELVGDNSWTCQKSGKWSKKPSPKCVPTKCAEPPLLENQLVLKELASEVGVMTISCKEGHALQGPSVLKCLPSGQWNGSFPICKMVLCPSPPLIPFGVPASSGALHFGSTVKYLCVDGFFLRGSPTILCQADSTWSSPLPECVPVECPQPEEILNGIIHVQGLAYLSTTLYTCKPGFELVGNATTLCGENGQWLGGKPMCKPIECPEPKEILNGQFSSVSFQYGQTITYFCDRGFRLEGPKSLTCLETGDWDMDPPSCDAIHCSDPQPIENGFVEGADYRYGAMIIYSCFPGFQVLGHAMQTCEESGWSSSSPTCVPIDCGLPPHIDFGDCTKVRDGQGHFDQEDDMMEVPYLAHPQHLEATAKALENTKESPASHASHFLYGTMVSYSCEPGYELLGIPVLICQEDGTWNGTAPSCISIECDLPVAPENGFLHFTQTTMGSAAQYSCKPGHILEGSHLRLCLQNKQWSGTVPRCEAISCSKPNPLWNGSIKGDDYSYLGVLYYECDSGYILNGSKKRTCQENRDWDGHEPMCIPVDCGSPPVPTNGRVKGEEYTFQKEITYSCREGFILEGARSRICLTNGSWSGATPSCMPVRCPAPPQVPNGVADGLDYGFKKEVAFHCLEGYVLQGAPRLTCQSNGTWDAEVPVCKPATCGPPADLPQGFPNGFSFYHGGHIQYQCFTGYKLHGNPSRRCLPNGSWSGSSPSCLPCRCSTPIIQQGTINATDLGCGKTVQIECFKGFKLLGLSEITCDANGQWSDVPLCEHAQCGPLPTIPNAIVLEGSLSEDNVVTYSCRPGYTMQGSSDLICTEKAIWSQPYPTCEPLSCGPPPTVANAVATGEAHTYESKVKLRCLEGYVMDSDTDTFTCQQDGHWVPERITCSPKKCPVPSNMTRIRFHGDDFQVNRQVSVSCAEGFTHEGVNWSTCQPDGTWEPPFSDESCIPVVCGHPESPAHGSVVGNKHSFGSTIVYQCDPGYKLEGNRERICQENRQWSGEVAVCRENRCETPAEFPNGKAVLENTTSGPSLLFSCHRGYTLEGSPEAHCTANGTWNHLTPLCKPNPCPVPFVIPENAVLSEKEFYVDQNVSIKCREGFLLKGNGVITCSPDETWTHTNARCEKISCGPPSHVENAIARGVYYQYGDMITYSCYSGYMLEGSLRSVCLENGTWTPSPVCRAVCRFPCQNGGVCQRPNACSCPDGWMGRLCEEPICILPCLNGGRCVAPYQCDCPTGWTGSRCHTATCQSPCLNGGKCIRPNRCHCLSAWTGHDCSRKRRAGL
UniProt P11276, residues 33-2477: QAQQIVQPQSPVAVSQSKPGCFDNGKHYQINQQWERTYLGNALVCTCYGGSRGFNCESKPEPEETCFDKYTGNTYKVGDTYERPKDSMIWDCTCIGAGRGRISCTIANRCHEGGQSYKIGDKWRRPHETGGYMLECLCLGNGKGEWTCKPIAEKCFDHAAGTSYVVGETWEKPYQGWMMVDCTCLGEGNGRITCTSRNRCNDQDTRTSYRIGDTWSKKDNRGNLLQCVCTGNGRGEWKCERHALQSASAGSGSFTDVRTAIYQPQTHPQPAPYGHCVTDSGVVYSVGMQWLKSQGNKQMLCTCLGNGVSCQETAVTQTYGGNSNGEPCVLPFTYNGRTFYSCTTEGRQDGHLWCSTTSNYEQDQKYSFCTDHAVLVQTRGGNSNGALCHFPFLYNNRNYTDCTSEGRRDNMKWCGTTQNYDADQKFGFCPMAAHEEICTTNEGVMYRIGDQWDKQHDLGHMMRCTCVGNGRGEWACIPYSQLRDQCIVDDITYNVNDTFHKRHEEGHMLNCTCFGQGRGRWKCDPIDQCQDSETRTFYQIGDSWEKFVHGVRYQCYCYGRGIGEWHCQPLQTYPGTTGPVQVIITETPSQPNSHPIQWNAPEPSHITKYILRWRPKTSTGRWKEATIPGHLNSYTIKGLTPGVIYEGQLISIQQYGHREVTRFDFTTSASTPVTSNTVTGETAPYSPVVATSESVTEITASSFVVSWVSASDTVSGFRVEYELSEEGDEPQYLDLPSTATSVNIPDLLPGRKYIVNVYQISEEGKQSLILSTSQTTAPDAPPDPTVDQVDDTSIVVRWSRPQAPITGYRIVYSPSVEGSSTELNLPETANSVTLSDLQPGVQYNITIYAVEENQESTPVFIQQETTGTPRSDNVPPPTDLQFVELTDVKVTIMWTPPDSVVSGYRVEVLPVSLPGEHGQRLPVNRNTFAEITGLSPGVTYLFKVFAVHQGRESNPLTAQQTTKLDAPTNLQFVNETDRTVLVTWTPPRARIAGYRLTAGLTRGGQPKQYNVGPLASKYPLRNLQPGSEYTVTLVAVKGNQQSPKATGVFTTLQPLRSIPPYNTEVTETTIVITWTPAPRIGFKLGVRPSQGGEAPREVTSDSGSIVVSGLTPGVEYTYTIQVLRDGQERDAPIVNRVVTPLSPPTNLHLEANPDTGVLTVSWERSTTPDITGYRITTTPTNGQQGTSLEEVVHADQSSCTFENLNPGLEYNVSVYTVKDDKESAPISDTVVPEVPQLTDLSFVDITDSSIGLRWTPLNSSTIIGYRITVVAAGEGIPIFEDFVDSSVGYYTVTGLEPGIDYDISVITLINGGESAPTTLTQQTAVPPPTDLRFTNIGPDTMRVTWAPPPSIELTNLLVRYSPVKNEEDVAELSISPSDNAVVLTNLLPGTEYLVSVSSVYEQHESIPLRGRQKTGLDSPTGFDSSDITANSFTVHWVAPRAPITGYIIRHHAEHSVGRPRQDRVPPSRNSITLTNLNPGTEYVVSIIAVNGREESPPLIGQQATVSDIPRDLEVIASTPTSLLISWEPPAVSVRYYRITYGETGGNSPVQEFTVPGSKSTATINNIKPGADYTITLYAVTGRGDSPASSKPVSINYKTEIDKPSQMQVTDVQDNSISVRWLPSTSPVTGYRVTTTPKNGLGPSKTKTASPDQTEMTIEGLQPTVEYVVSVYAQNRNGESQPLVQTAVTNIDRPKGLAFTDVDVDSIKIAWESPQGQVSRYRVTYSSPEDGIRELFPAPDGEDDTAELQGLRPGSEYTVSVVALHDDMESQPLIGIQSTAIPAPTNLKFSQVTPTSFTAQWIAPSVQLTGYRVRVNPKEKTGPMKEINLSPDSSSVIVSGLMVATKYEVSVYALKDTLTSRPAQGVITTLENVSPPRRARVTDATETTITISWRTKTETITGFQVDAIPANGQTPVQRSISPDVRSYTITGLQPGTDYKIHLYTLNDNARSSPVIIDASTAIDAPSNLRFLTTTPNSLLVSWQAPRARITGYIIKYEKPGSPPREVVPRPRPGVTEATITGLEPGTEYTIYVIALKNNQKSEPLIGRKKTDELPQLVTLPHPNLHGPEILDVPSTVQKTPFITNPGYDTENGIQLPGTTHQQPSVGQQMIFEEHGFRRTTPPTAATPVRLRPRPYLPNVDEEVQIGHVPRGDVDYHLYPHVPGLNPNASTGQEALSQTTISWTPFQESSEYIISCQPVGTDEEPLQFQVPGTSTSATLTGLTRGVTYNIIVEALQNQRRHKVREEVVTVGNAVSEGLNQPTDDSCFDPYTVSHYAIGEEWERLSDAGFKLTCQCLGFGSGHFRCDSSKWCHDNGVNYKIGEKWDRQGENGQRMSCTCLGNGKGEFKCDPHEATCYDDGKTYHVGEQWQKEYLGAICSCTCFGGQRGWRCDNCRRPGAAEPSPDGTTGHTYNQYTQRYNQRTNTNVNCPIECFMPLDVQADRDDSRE

The target of test [1] is SVEP1 miniTurbo fusion protein (SVEP1-mTID) (mouse) (UniProt A2AVA0). Nature of the test: proximity labelling; recombinant SVEP1-mTID (SVEP1-Myc as control) added to enriched VSMC media with 500 uM biotin and 1 mM ATP for 4 h; streptavidin magnetic beads; UPLC-Orbitrap; two experiments; only the target purified.
Test [2] addresses recombinant, Myc-tagged SVEP1 (Sushi, von Willebrand factor type A, EGF and pentraxin domain containing 1) (mouse) (UniProt A2AVA0). Nature of the test: affinity purification with mass spectrometry; recombinant Myc-tagged SVEP1 added for 1 h to enriched serum-free media of murine VSMCs; anti-c-Myc magnetic beads, 0.05% Tween 20, 4 C; on-bead digestion, UPLC-timsTOF; two experiments; only the target purified.

No constants are given. Whether binding was seen depends on the method and setting. Binding seen in cells or lysates may run through a third protein. Here binding means that the protein was enriched with, or labelled near, the bait; the list need not be complete.

In the case of “Fibronectin (from UniProt P11276 33-2477)”, the binding result in test [1] and in test [2] was “binds” each time.
Regarding “Laminin subunit gamma-1 (from UniProt P02468 34-1607)”, the binding entry in test [1] and in test [2] was “binds” throughout.
“Basement membrane-specific heparan sulfate proteoglycan core protein (from UniProt Q05793 22-3707)”: the binding result in test [1] and in test [2] was “binds” throughout.

B1: Nidogen-1 (protein, UniProt P10493 29-1245)
chain: LNRQELFPFGPGQGDLELEAGDDVVSPSLELIGELSFYDRTDITSVYVTTNGIIAMSEPPATEYHPGTFPPSFGSVAPFLADLDTTDGLGNVYYREDLSPFIIQMAAEYVQRGFPEVSFQPTSVVVVTWESVAPYGGPSSSPAEEGKRNTFQAVLASSNSSSYAIFLYPEDGLQFFTTFSKKDESQVPAVVGFSKGLVGFLWKSNGAYNIFANDRESIENLAKSSNAGHQGVWVFEIGSPATAKGVVSADVNLDLDDDGADYEDEDYDLVTSHLGLEDVATPSPSHSPRRGYPDPHNVPRILSPGYEATERPRGVPTERTRSFQLPAERFPQHHPQVIDVDEVEETGVVFSYNTGSQQTCANNRHQCSVHAECRDYATGFCCRCVANYTGNGRQCVAEGSPQRVNGKVKGRIFVGSSQVPVVFENTDLHSYVVMNHGRSYTAISTIPETVGYSLLPLAPIGGIIGWMFAVEQDGFKNGFSITGGEFTRQAEVTFLGHPGKLVLKQQFSGIDEHGHLTISTELEGRVPQIPYGASVHIEPYTELYHYSSSVITSSSTREYTVMEPDQDGAAPSHTHIYQWRQTITFQECAHDDARPALPSTQQLSVDSVFVLYNKEERILRYALSNSIGPVRDGSPDALQNPCYIGTHGCDSNAACRPGPGTQFTCECSIGFRGDGQTCYDIDECSEQPSRCGNHAVCNNLPGTFRCECVEGYHFSDRGTCVAAEDQRPINYCETGLHNCDIPQRAQCIYMGGSSYTCSCLPGFSGDGRACRDVDECQHSRCHPDAFCYNTPGSFTCQCKPGYQGDGFRCMPGEVSKTRCQLEREHILGAAGGADAQRPTLQGMFVPQCDEYGHYVPTQCHHSTGYCWCVDRDGRELEGSRTPPGMRPPCLSTVAPPIHQGPVVPTAVIPLPPGTHLLFAQTGKIERLPLERNTMKKTEAKAFLHIPAKVIIGLAFDCVDKVVYWTDISEPSIGRASLHGGEPTTIIRQDLGSPEGIALDHLGRTIFWTDSQLDRIEVAKMDGTQRRVLFDTGLVNPRGIVTDPVRGNLYWTDWNRDNPKIETSHMDGTNRRILAQDNLGLPNGLTFDAFSSQLCWVDAGTHRAECLNPAQPGRRKVLEGLQYPFAVTSYGKNLYYTDWKTNSVIAMDLAISKEMDTFHPHKQTRLYGITIALSQCPQGHNYCSVNNGGCTHLCLPTPGSRTCRCPDNTLGVDCIERK
Take B1: the binding entry in test [1] and in test [2] was “binds” throughout.
